# From the supplement of paper PMC3334620
# The full ranking holds about 33,000 sequences; the median of “E-score (-0.5 to 0.5)” is about -0.016, and the highest 2% start at about 0.3. The list shows a part of the results.
# Biological target: T1, Yer184c (UniProt P39961)
# T1 sequence: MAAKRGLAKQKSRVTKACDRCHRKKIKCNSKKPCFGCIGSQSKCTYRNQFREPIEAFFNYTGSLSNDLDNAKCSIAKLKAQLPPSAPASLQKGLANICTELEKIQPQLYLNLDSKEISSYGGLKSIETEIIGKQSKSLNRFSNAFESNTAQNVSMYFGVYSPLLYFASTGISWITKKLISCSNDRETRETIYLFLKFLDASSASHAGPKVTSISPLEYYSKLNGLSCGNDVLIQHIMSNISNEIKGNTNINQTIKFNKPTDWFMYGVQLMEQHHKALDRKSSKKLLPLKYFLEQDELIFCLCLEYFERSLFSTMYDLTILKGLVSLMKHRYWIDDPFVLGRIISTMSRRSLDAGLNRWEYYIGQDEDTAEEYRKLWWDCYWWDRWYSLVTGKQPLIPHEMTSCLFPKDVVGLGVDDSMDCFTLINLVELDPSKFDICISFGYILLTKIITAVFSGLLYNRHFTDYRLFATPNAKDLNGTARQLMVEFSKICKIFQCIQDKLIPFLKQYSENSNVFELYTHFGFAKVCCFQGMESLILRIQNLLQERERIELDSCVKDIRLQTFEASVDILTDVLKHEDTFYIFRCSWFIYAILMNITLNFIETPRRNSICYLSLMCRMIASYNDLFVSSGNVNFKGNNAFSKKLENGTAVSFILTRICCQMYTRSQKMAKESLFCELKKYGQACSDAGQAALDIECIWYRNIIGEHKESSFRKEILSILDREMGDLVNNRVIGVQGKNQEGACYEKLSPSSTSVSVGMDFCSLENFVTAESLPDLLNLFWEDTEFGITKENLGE
# Assay: PBM E-score (8-mer binding enrichment) (E-score (-0.5 to 0.5)); higher = stronger / more preferred TF binding
# Conditions: protein concentration: 100 nM; construct: GST-full length
# In short: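 Full-length yeast transcription factors or their DNA-binding domains, GST-tagged and expressed with PURExpress, were applied at about 100-200 nM to universal all-10-mer Agilent arrays. These arrays had been made double-stranded by primer extension on fresh or once-stripped slides. Detection used fluorescent anti-GST, normalisation used masliner, and E-scores for ungapped eight-base words pooled with reverse complements came from the Universal PBM Analysis Suite.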
row,Sequence,PBM E-score
1,AGTTAATG,0.0389
2,GCAATCAA,0.0352
3,CCGCGACA,-0.00477
4,ATTACCCC,-0.102
5,TACAATGA,-0.00708
6,GGTGAGGA,-0.0261
7,CTAAATAA,0.15
8,CGGTCATA,0.0882
9,AAGCACGT,0.00984
10,TAGCAAGA,0.0272
11,ATTTGGAC,0.0275
12,GCTACTAC,0.11
13,AATCCAGA,0.191
14,ATGCGGCG,0.0251
15,GTCCTGAA,-0.0168
16,AAACTGTT,0.173
17,AACTCGTG,-0.003
18,CTGGACAC,-0.296
19,AACATTCT,0.0981
20,CAGAAGAA,-0.0789
21,ACTAAAAT,0.169
22,TCGGACGA,0.278
23,AGCAACTG,0.00852
24,CTATTCCA,-0.0104
25,AATCGCCC,-0.0889

# Looked up one by one from the entries so far:
row,Sequence,PBM E-score
11,ATTTGGAC,0.0275
22,TCGGACGA,0.278
17,AACTCGTG,-0.003

# (next part)

row,Sequence,PBM E-score
1,AGGATCAT,-0.0359
2,GCGGGGTA,-0.0321
3,AGCCCGGG,0.268
4,AGAACTAC,3e-05
5,CACCGCTG,-0.227
6,GAAGCCAA,-0.135
7,CGCAAAGA,0.0479
8,ATTAATGC,-0.00255
9,GAATGCAC,0.0993
10,ACCCGCTC,-0.343
11,GCTGCTCA,-0.169
12,ATGGATCG,0.114
13,CACAAGAG,-0.0851
14,ATAGGGAA,-0.0565
15,GGCACTCA,-0.335
16,ATGGCTCG,-0.0279
17,CAGCATGC,-0.0481
18,CGACAAGA,0.089
19,TGCGCGCA,-0.007
20,CTCACTCA,-0.0792
21,ATCCTTCC,-0.223
22,CATAGAGA,-0.12
23,CCGGACAG,0.324
24,ACCACCGC,-0.285
25,CAATTACA,0.11

# Shown bar-delimited: part of the list above.
row | Sequence | PBM E-score
6 | GAAGCCAA | -0.135
7 | CGCAAAGA | 0.0479
8 | ATTAATGC | -0.00255

# Going on with the list:

row,Sequence,PBM E-score
1,AGACGCTA,-0.0684
2,AATGGCAA,0.108
3,CCCGCCTC,-0.22
4,CCCGGAAG,0.259
5,AGGTCACG,-0.176
6,GGTAGGAC,-0.0934
7,ATATTAGC,0.159
8,ATAGCGGC,0.0486
9,CCTAGCAC,-0.103
10,AATGACAC,-0.126
11,CTCGACGC,0.134
12,TAAGATTA,0.0934
13,CCAGATGG,-0.224
14,CCATCTAC,-0.15
15,ACGTTCAC,-0.064
16,CTGTACAC,-0.0897
17,ACTATAGC,-0.169
18,CGGAAATC,0.315
19,CTGTGAAC,0.00307
20,GGCCCCTA,-0.357
21,CTTTAGCC,0.206
22,ATAGTGGA,-0.00347
23,CATCGTGA,-0.0261
24,CGTTCGTC,0.0163
25,GACAACGA,0.16

# In a second layout: entries from further up.
row	Sequence	PBM E-score
24	CTATTCCA	-0.0104
25	AATCGCCC	-0.0889
1	AGGATCAT	-0.0359
2	GCGGGGTA	-0.0321

# (next part)

row,Sequence,PBM E-score
1,GAGATGCC,0.0528
2,ATCAATAC,0.0586
3,TAGGTCGA,0.0761
4,CCCTTATC,-0.163
5,GTAGGCTA,-0.0673
6,ATACAACA,0.0721
7,ACAAACGG,0.206
8,AGAGCTCC,-0.193
9,ATCGGCAG,0.247
10,ACTCACTA,0.159
11,AAGCGCGT,-0.0847
12,AAGAGTAG,0.013
13,ACATTCGC,-0.0692
14,ACCAACGT,-0.163
15,TGAGGAAA,0.0193
16,CGTGAAGC,-0.118
17,AAGTGGGT,-0.0898
18,AAGGACGC,-0.0674
19,ATGAAAAA,0.22
20,AGTTTCAG,-0.105
21,ACCGGTCT,-0.124
22,ACGGCTAC,0.171
23,CCGGACCC,0.235
24,CAGTTAAG,0.0757
25,ACATGCGC,-0.0466

row,Sequence,PBM E-score
1,AAGGGGAC,-0.0399
2,TGCTATAA,-0.00769
3,AATAAATT,0.294
4,GTAATCTA,0.196
5,CACCATGG,-0.216
6,ACGCGCTC,0.0382
7,ATCTACAA,0.032
8,CCCTGTCG,-0.115
9,AGCCTAAA,0.0463
10,ATCAGGTA,-0.00532
11,AAGTGGAC,-0.14
12,ATAGTGAG,-0.0847
13,CACATGCA,-0.138
14,ATACAGAC,0.0388
15,ATAGAGAC,-0.116
16,GTAGATCA,0.0991
17,GAGATAAC,-0.00305
18,GTAAGTAA,-0.112
19,CGAGTAGC,0.13
20,AAAAGATC,-0.0129
21,TGAAGTAA,-0.0474
22,GAGCTCCC,-0.139
23,ACTTAACC,0.103
24,AGCGCCAC,-0.234
25,ATCAGGAG,0.128

row,Sequence,PBM E-score
1,AGCTTCAC,-0.106
2,CTTATTCC,0.0275
3,CGGCGACC,0.237
4,TACCTGGA,-0.0658
5,AAGGTGCG,-0.207
6,CCGGGACA,0.287
7,GCTGTACC,-0.116
8,AGGATTAG,-0.0216
9,ATTTGTTC,0.227
10,ACTCTCTG,-0.119
11,CGCACGCC,0.0567
12,GGTCGTAA,0.0853
13,GAGTGTCC,0.119
14,AGGCATAC,-0.175
15,ACATTCAA,0.0156
16,AATAACCT,-0.0516
17,GAGGTGAC,0.0807
18,CCATCATA,-0.113
19,AGCTTACC,-0.0423
20,AATGGCCC,-0.247
21,CGGAATGC,0.249
22,ACGTCACG,-0.168
23,AAAGCAGT,0.039
24,GAGACAAC,0.0432
25,AGGTTAAT,0.102

row,Sequence,PBM E-score
1,ACTCAGAA,0.134
2,AACGAGGG,-0.234
3,CTTATCTC,0.053
4,CAGACCTG,-0.184
5,AATGCCAA,-0.029
6,ACCTGCCC,-0.125
7,AACGGTCC,-0.0409
8,AAACAAGC,0.11
9,GCTATACC,-0.124
10,AGCACCTG,-0.0415
11,CGCTCACC,-0.208
12,GGCCCGAC,0.0318
13,AACTCTTA,0.136
14,GACATCGA,0.0281
15,ATGTATTA,0.137
16,CGCACCGC,-0.0998
17,ATCGAGGA,0.106
18,ACACTCAA,0.067
19,AAGCTACC,0.0307
20,TACTCGCA,0.0751
21,GTTACGGA,0.206
22,TCGATCCA,-0.148
